PubChem BioAssay AID602196 – INSERM, 2012
The whole screen tested about 23,000 reagents; below is an unselected part. Of all reagents, 455 (2%) are marked active. 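Active includes both protection and sensitisation; some change values fall well beyond the stated -50 to +50 range.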 Unmarked entries are inactive. Further read-outs or replicates are left out here. No sequences are given here. Not stated in the record: the amount of reagent.

- Screen: 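Knock-downs that protect lung cancer cells from cisplatin or sensitise them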
- Cells: human A549 lung cancer cells
- Reagent: siRNA pair against human genes
- Duration: 48 h transfection before cisplatin; time from cisplatin to read-out not stated
- Treatment: cisplatin at a dose killing half of control-siRNA cells; exact dose and duration not given
- Detection: 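Cisplatin cell death as a shift from the 50% death seen with control siRNA; siRNAs toxic or growth-blocking alone scored 0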
- Scale: two-siRNA summed score (-2 to +2): higher = both siRNAs protect from cisplatin killing; -2 means both sensitise
- Active means: 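siRNAs harmful alone (LDH or WST-1) get 0; others get +1 for less and -1 for more cisplatin killing; genes are active when the two siRNAs give the same sign, summing to ±2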
- Meaning of the calls: active = both siRNAs shift cisplatin killing the same way; inactive = no consistent shift, or siRNA harmful alone

Against DYNLT1, the values are two-siRNA summed score (-2 to +2) = 0. BHLHE40 gave two-siRNA summed score (-2 to +2) = 0. With knock-down of ORAI2, the record shows two-siRNA summed score (-2 to +2) = 0. Silencing of MEP1A came out at: two-siRNA summed score (-2 to +2) = 0. After knock-down of SHROOM2 the results were two-siRNA summed score (-2 to +2) = -1. Depletion of NSD1 gave: two-siRNA summed score (-2 to +2) = 1.

Depletion of LOC440144 resulted in: two-siRNA summed score (-2 to +2) = 0. IL18R1 gave two-siRNA summed score (-2 to +2) = 1. HINT3 gave two-siRNA summed score (-2 to +2) = 1. MATK gave two-siRNA summed score (-2 to +2) = 1. NCBP1 gave two-siRNA summed score (-2 to +2) = 0. Knock-down of GSTT4 resulted in: two-siRNA summed score (-2 to +2) = 1.

GSDMA gave two-siRNA summed score (-2 to +2) = -1. Against LOC158345, the entry reads two-siRNA summed score (-2 to +2) = 0. For FGFBP1 the deposit lists two-siRNA summed score (-2 to +2) = 0. After knock-down of BRS3, the record shows two-siRNA summed score (-2 to +2) = 1. Depletion of BRICD5 came out at: two-siRNA summed score (-2 to +2) = 0. With knock-down of SPEF2 the results were two-siRNA summed score (-2 to +2) = 0.

Silencing of SIGLEC10 gave: two-siRNA summed score (-2 to +2) = 0. TFDP3 showed two-siRNA summed score (-2 to +2) = 0. LOC441078 scored two-siRNA summed score (-2 to +2) = 1. For OVCA2, the entry reads two-siRNA summed score (-2 to +2) = 0. LOC151320 scored two-siRNA summed score (-2 to +2) = -1. Knock-down of DMAC2 resulted in: two-siRNA summed score (-2 to +2) = 0.

Knock-down of LOC127309 came out at: two-siRNA summed score (-2 to +2) = 0. LOC440352 scored two-siRNA summed score (-2 to +2) = 0. For THADA the deposit lists two-siRNA summed score (-2 to +2) = 0. With knock-down of NMI, the record shows two-siRNA summed score (-2 to +2) = 0. LOC440954 showed two-siRNA summed score (-2 to +2) = 0. For BRCC3, the entry reads two-siRNA summed score (-2 to +2) = 0.

Silencing of KLHL9 gave: two-siRNA summed score (-2 to +2) = 0. ABTB3 showed two-siRNA summed score (-2 to +2) = 0. With knock-down of LOC388227 the results were two-siRNA summed score (-2 to +2) = 0. Knock-down of LOC400842 came out at: two-siRNA summed score (-2 to +2) = 1. With knock-down of MGC22014, the record shows two-siRNA summed score (-2 to +2) = 1. GNAI2P2 showed two-siRNA summed score (-2 to +2) = 1.

For KBTBD2, the entry reads two-siRNA summed score (-2 to +2) = 0. With knock-down of LOC387832 the results were two-siRNA summed score (-2 to +2) = 0. After knock-down of ADAMTSL2, the screen gave two-siRNA summed score (-2 to +2) = 0. With knock-down of TOP3A, the screen gave two-siRNA summed score (-2 to +2) = 0.

In a second layout: results already given.
gene,two-siRNA summed score (-2 to +2)
BRICD5,0
SPEF2,0
SIGLEC10,0
TFDP3,0
